Measurements: PubChem BioAssay AID540303 (National Center for Advancing Translational Sciences (NCATS), 2011)
About 1,000 (0.3%) of roughly 330,000 compounds were called active. This list was built around the results that the source calls inconclusive (neither active nor inactive); the mix of calls is not that of the screen. The call rests on the fitted dose curve; in most records, active means well fitted inhibition curve with a large enough effect; inconclusive means small, poorly fitted or top-dose-only effect; inactive means no such curve, though single readings can be large or run the other way; tested in mouse RAW 264.7 cells. Where the call is inconclusive, the potency comes from a doubtful curve fit.

test: qHTS for Inhibitors of Cell Surface uPA Generation; conditions: cell surface uPA generation assay; series mostly up to 38.3 µM; activity change, negative = inhibition: at the top concentration; further: nearly all actives have a fitted effect of over 55% in size
Outline: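 Validation set in qHTS format. RAW 264.7 cells were pre-plated overnight and then exposed to compounds (up to 38.3 uM final) for 24 h at 37 C in 5% CO2, followed by a luminescent ATP-Lite measurement.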
On the % scale 0 is the no-effect control and ±100 the full control effect; potency means the concentration at half of the fitted maximal effect.

SMILES	Potency	activity change, negative = inhibition
O=C(Nc1nc2c(F)cccc2s1)c1ccco1	inconclusive: 12.6 µM [inhibitor, single point]	–
COc1cc(/C=C(\C#N)c2ccccn2)ccc1OCc1ccccc1	–	inactive: -1.33%
Cc1cc(NC(=O)CSc2nnc(COc3ccccc3)o2)no1	–	inactive: 1.16%
Nc1ccccc1C#CCCCCO	inconclusive: 5.62 µM [inhibitor, partial curve, poor fit]	–
CN1CCc2c(C#N)c(N3CCCCC3)nc(NCc3ccccc3)c2C1	–	inactive: 2.41%
COc1ccc(NC(=O)c2cc([N+](=O)[O-])ccc2O)cc1	inconclusive: 2 µM [inhibitor, full curve, poor fit]	–
CCOC(=O)c1ccc(NCc2nc3ccccc3[nH]2)cc1	inconclusive: 8.91 µM [inhibitor, partial curve, poor fit]	–
CCCc1cc(=O)n2[nH]c(SCc3ccc(Cl)cc3)nc2n1	inconclusive: 1 µM [inhibitor, partial curve, poor fit]	–
N#C/C(=C\c1ccc(C#N)cc1)C(=O)c1ccccc1	–	inactive: 8.93%
c1ccc(-n2c(Sc3cnccn3)nnc2-c2cccs2)cc1	–	inactive: 3.4%
COc1ccccc1-n1cnnc1SCC(=O)c1c[nH]c2ccccc12	–	inactive: 7.42%
OCC[C@@H]1C[C@@H](O)[C@H](O)[C@@]2(Cc3ccccc3CCO2)O1	–	inactive: -3.18%
COc1ccc(-c2c[n+]3c(n2-c2ccccc2)CCCCC3)cc1	inconclusive: 2.24 µM [inhibitor, partial curve]	–
Clc1ccc(-c2cn3cc(Cl)ccc3n2)cc1	inconclusive: 3.55 µM [inhibitor, single point]	–
CC(NC(=O)Nc1ccc([N+](=O)[O-])cc1)C(c1ccccc1)N1CCOCC1 (centres undefined)	–	inactive: -2.93%
CCOC(=O)N1CCC(N2CCN(S(=O)(=O)c3ccc4ccccc4c3)CC2)CC1	inconclusive: 7.08 µM [inhibitor, partial curve, poor fit]	–
Cc1cc(NC(=O)CSc2nc3c(c(=O)n2-c2ccc(Br)cc2)SCC3)no1	inconclusive: 6.31 µM [inhibitor, partial curve, poor fit]	–
CCC(=O)Nc1cccc(NC(=O)c2ccc3c(c2)OCCO3)c1	inconclusive: 10 µM [inhibitor, partial curve, poor fit]	–
O=C(CSc1cn(CCNC(=O)c2c(F)cccc2F)c2ccccc12)NCC1CCCO1 (centres undefined)	–	inactive: 12.4%
CC(=O)Nc1ccc(NC(=O)CSc2nnc(NC(=O)c3ccc(Br)o3)s2)cc1	inconclusive: 1 µM [inhibitor, partial curve, poor fit]	–
CN1C(=O)C(CC(=O)Nc2ccc(Cl)cc2)N(Cc2ccco2)C1=S (centres undefined)	inconclusive: 12.6 µM [inhibitor, partial curve, poor fit]	–
COC(=O)Cn1c(=O)c2c(nc3n2CC(C)CN3CCc2ccccc2)n(C)c1=O (centres undefined)	inconclusive: 0.0178 µM [inhibitor, full curve, poor fit]	–

SMILES	Potency	activity change, negative = inhibition
CN(C)c1ccc(C(C[N+](=O)[O-])c2c(N)n(C)c(=O)n(C)c2=O)c(F)c1C#N (centres undefined)	inconclusive: 2.24 µM [inhibitor, partial curve, poor fit]	–
O=[N+]([O-])/C(C=Nc1ccccc1O)=C\Nc1ccccc1O	inconclusive: 1 µM [inhibitor, full curve, poor fit]	–
O=C(C(O)c1ccccc1)N1N=C(c2ccccc2)CC1(O)C(F)(F)F (centres undefined)	–	inactive: -0.407%
O=C1C2CCCCN2C(=O)N1CCCCN1CCN(c2cccc(Br)c2)CC1 (centres undefined)	inconclusive: 10 µM [inhibitor, partial curve]	–
O=C(Nc1ccccc1Cl)NC1CCCCCCC1	–	inactive: -1.57%
O=C(Nc1cccc2ccccc12)c1ccc(OC(=S)N2CCOCC2)cc1	inconclusive: 7.94 µM [inhibitor, partial curve, poor fit]	–
COc1cc(C(=O)OCc2cccc(OC)c2OC)ccc1OCC(=O)N1CCOCC1	inconclusive: 0.891 µM [inhibitor, full curve, poor fit]	–
c1ccc(COC(CN2CCCCCC2)CN2CCCCCC2)cc1	inconclusive: 1 µM [inhibitor, full curve, poor fit]	–
O=C(/C=C/Nc1ccc(Br)cn1)c1cccc(OC(F)F)c1	inconclusive: 31.6 µM [inhibitor, partial curve, poor fit]	–
O=C(c1cc(-c2cccs2)on1)N1CCN(c2ccccc2)CC1	inconclusive: 11.2 µM [inhibitor, single point]	–
O=C(O)COc1ccc(/C=C/C(=O)c2ccc(C3CCCCC3)cc2)cc1	–	inactive: -15.6%
CCOc1ccc(CN2C(=O)c3ccccc3Sc3ccc(C(=O)NCCCN4CCOCC4)cc32)cc1	inconclusive: 7.94 µM [inhibitor, single point]	–
Cc1ccc(C(=O)Nc2nnc(S(=O)(=O)Nc3ccccc3C)s2)cc1C	inconclusive: 5.01 µM [inhibitor, partial curve, poor fit]	–
CC(C)Cn1c([N+](=O)[O-])nc2c1c(=O)[nH]c(=O)n2C	inconclusive: 3.55 µM [inhibitor, partial curve]	–
CCN(CC)c1ccc(/C=N/NC(=O)c2cnccn2)c(O)c1	inconclusive: 1.12 µM [inhibitor, full curve, poor fit]	–
Cc1nc([N+](=O)[O-])c(Br)n1CC(=O)c1ccccc1	–	inactive: -18.2%
C[C@@]12C(=O)Nc3ccc(Br)cc3C(=O)N1[C@H]1c3ccccc3OC[C@@H]1[C@@H]2c1ccccc1	inconclusive: 31.6 µM [inhibitor, single point]	–
Cc1cc(O)c(Oc2cc(C)cc(O)c2O)c(O)c1	inconclusive: 12.6 µM [inhibitor, single point]	–
CC(Sc1ccccc1F)C(=O)Nc1ccc2c(c1)OCCO2 (centres undefined)	–	inactive: -2.42%
Brc1cccc(-c2nnc(SCc3ccon3)n2-c2ccccc2)c1	–	inactive: 5.78%
O=C(/C=C/c1ccccc1Cl)Nc1cccc(O)c1	active: 4.47 µM	–
O=C(NN1CC(C(=O)OCc2ccc(Cl)cc2Cl)CC1=O)c1ccccc1 (centres undefined)	inconclusive: 2.24 µM [inhibitor, full curve, poor fit]	–

Part of the list above, in CSV form:
SMILES,Potency,"activity change, negative = inhibition"
O=[N+]([O-])/C(C=Nc1ccccc1O)=C\Nc1ccccc1O,"inconclusive: 1 µM [inhibitor, full curve, poor fit]",–
O=C(C(O)c1ccccc1)N1N=C(c2ccccc2)CC1(O)C(F)(F)F (centres undefined),–,inactive: -0.407%
O=C1C2CCCCN2C(=O)N1CCCCN1CCN(c2cccc(Br)c2)CC1 (centres undefined),"inconclusive: 10 µM [inhibitor, partial curve]",–
O=C(Nc1ccccc1Cl)NC1CCCCCCC1,–,inactive: -1.57%
O=C(Nc1cccc2ccccc12)c1ccc(OC(=S)N2CCOCC2)cc1,"inconclusive: 7.94 µM [inhibitor, partial curve, poor fit]",–
COc1cc(C(=O)OCc2cccc(OC)c2OC)ccc1OCC(=O)N1CCOCC1,"inconclusive: 0.891 µM [inhibitor, full curve, poor fit]",–
c1ccc(COC(CN2CCCCCC2)CN2CCCCCC2)cc1,"inconclusive: 1 µM [inhibitor, full curve, poor fit]",–
O=C(/C=C/Nc1ccc(Br)cn1)c1cccc(OC(F)F)c1,"inconclusive: 31.6 µM [inhibitor, partial curve, poor fit]",–
O=C(c1cc(-c2cccs2)on1)N1CCN(c2ccccc2)CC1,"inconclusive: 11.2 µM [inhibitor, single point]",–
O=C(O)COc1ccc(/C=C/C(=O)c2ccc(C3CCCCC3)cc2)cc1,–,inactive: -15.6%
